Reference: publication doi:10.1101/2022.03.21.485216
Like-named read-outs stand apart in the source and are kept apart here. No constants are given. Whether binding was seen depends on the method and setting. In cells and extracts the contact can be indirect. Some entries that bind do so weakly or less than the wild type. For some assays here: Tags and fused reporters may be left off the sequences shown.

The chains behind the UniProt entries cited, without tags or fusion partners. Where a name states a change or a piece, a line headed by the entry shows the natural chain unless it says otherwise.
UniProt Q92616: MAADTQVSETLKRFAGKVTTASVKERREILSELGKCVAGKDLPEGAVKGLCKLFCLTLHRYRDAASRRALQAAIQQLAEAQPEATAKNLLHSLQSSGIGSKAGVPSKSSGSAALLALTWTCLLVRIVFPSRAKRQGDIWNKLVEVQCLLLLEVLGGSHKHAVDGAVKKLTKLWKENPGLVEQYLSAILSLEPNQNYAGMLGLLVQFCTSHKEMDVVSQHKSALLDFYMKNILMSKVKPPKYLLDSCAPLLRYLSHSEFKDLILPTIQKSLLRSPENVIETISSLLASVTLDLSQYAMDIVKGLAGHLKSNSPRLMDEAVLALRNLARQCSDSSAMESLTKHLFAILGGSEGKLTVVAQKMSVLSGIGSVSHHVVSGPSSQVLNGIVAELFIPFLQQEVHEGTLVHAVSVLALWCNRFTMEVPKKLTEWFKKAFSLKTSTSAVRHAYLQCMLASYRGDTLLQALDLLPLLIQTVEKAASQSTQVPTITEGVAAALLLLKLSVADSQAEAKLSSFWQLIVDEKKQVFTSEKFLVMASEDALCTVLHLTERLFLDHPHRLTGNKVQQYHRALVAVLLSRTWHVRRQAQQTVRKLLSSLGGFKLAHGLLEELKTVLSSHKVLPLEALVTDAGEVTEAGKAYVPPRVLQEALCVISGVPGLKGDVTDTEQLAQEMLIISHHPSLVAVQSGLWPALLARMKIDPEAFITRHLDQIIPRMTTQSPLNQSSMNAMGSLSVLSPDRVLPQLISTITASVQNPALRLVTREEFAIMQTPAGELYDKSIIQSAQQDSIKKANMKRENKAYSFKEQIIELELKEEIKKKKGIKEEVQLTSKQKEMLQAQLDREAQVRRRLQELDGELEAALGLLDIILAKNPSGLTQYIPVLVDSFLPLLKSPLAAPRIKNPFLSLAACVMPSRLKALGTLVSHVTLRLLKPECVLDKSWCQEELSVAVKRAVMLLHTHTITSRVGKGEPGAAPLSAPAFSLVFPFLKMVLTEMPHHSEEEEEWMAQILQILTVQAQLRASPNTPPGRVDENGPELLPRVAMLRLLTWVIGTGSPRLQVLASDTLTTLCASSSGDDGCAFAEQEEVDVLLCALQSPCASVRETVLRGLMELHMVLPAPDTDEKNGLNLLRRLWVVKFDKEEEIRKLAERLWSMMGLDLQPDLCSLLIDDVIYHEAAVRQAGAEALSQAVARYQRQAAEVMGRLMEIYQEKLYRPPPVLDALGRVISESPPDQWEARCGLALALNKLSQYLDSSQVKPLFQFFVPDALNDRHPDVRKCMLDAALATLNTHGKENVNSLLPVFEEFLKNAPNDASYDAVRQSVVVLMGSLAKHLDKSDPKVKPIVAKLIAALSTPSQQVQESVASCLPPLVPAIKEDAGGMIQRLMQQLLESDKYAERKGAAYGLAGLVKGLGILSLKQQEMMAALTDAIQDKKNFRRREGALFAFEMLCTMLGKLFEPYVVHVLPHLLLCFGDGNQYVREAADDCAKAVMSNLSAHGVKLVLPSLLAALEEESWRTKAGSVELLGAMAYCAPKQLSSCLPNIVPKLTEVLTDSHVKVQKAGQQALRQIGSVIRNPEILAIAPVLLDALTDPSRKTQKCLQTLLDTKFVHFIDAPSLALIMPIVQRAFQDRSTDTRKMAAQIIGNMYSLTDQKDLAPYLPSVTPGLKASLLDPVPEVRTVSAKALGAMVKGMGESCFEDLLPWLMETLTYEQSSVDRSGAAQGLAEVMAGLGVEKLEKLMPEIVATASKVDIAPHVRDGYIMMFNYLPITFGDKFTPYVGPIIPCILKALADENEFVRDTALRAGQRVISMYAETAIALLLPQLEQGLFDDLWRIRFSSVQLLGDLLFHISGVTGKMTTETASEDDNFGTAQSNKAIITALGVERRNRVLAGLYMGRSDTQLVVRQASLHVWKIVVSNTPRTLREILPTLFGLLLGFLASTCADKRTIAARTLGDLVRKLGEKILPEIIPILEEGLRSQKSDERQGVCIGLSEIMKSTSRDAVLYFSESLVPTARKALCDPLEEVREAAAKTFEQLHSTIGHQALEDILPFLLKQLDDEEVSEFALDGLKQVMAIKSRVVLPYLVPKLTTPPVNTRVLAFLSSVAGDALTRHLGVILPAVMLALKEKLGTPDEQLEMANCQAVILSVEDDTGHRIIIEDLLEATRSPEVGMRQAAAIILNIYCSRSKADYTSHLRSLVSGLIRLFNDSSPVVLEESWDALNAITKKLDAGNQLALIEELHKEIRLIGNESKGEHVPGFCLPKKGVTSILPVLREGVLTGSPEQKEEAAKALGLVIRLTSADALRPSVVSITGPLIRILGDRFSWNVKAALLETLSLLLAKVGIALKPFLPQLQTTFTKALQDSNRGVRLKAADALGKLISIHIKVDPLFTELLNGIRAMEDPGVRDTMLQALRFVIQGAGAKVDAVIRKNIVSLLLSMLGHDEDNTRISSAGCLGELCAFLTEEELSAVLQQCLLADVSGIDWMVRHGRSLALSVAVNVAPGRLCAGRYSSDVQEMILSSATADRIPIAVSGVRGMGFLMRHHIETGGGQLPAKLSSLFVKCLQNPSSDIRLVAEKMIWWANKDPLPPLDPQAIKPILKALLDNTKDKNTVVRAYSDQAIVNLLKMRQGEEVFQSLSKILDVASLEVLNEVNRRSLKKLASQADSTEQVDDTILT
UniProt Q9P2K8: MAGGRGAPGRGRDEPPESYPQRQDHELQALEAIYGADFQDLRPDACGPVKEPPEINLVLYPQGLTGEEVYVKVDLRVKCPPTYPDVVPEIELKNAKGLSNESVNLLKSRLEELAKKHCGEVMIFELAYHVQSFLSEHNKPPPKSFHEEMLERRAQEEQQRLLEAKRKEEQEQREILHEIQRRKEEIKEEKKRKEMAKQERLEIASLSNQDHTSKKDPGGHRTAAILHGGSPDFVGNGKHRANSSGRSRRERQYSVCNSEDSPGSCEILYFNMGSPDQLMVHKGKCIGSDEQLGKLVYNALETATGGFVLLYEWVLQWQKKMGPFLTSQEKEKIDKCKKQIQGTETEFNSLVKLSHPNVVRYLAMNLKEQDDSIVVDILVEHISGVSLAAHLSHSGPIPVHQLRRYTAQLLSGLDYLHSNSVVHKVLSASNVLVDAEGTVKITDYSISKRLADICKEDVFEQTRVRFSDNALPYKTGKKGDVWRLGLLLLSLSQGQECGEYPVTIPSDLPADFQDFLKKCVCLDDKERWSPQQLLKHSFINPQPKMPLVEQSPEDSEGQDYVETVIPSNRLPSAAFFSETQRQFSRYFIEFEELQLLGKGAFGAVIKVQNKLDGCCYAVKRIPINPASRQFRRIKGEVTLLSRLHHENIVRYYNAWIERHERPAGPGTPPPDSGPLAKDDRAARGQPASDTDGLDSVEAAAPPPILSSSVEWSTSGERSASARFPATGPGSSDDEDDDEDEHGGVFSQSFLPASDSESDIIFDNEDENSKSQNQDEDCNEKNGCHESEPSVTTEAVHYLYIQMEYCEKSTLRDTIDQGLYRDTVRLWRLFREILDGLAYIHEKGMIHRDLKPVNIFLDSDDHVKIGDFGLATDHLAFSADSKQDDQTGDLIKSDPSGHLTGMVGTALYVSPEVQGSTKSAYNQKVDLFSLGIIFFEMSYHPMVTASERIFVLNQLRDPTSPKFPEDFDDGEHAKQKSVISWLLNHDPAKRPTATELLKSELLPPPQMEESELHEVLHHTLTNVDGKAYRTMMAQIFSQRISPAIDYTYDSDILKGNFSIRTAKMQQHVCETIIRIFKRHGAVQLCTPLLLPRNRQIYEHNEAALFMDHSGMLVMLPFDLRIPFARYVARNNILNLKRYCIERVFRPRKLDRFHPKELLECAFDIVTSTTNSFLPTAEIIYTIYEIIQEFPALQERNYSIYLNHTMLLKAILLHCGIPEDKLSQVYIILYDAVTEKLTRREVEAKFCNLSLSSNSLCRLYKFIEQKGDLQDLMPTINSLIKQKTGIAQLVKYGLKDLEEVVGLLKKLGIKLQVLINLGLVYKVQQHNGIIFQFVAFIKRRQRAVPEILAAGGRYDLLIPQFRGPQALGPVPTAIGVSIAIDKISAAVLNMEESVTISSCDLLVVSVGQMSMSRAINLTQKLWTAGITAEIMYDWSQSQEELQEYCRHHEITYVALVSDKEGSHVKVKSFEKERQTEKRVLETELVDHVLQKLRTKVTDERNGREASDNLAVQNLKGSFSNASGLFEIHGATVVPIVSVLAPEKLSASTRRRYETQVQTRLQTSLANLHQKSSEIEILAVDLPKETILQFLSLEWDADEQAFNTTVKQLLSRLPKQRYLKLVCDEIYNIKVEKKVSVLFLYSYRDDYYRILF

What was measured:
Assay in all cases: co-IP
3xFlag-tagged RNF14 = target: T1, 3xFlag-tagged RNF14 (UniProt Q9UBS8)
T1 sequence: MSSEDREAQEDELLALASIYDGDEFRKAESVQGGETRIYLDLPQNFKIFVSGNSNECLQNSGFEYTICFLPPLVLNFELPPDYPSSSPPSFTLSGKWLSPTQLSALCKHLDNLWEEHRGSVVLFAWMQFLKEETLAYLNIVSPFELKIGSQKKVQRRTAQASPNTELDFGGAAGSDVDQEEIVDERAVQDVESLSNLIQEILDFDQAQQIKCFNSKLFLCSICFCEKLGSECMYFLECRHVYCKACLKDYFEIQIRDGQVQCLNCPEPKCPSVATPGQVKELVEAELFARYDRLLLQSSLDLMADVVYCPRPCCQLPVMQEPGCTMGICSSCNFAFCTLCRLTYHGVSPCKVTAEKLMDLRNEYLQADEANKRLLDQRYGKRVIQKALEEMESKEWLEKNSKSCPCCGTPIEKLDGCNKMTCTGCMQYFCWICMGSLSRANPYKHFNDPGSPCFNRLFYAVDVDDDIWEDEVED

GCN1-3xFlag (human) [1] = target: GCN1-3xFlag (human) (UniProt Q92616)
[2] = target: R2312A GCN1-3xFlag (human) (UniProt Q92616)
GCN1-3xFlag (human) [3] = target: GCN1-3xFlag (human) (UniProt Q92616); remark: listed apart in the source

higher-molecular weight, likely multi-ubiquitinated form of GCN1 (from UniProt Q92616 1-2671)
binding (3xFlag-tagged RNF14): binds

endogenous GCN1 (from UniProt Q92616 1-2671)
binding (3xFlag-tagged RNF14): binds

GCN2 (from UniProt Q9P2K8 1-1649) (enzyme)
binding (GCN1-3xFlag (human) [1]): binds
binding [2]: binds

B1: endogenous RNF14 (enzyme, UniProt Q9UBS8 1-474)
chain: T1 sequence
binding (GCN1-3xFlag (human) [3]): binds
